The list shows a part of the results.
How the values were obtained:
Assay in all cases: log2 fold change, soluble protein after heating vs DMSO (PISA); higher = thermal stabilisation; K562 cells, 10 uM, 30 min; active = over 0.2 and 3.5 SD of the protein, either way, in both replicates (recomputed)
[1] = compound: CN1CCN(CCOc2cc(OC3CCOCC3)c3c(Nc4c(Cl)ccc5c4OCO5)ncnc3c2)CC1 [saracatinib]
How it was run: (§1)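 K562 cells at 2×10^6 cells/mL were given 10 μM compound for 30 min. Aliquots then went through 3 min of heating across 48°C-58°C, were pooled, and were extracted in PBS with 0.5% NP-40 at 4°C, and the supernatant after 21,000xg for 90 min was quantified by TMTpro 16plex LC-MS/MS with channel sums equalised. Thermal stability relative to control samples, from duplicates, is given as log2 fold change.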

The chains behind the UniProt entries cited, without tags or fusion partners. Where a name states a change or a piece, a line headed by the entry shows the natural chain unless it says otherwise.
UniProt Q8NDZ6: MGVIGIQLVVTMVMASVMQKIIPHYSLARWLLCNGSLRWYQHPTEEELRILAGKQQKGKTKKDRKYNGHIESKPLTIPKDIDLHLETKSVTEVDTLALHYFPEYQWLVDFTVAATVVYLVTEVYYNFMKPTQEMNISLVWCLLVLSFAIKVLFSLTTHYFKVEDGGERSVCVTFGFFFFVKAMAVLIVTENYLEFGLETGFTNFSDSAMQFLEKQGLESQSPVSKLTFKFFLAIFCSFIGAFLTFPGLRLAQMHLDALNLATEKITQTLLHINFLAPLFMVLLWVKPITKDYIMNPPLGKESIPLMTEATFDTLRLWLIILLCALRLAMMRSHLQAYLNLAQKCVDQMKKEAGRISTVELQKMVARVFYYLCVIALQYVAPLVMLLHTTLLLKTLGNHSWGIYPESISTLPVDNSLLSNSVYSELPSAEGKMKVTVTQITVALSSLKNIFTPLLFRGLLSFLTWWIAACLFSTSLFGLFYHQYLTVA
UniProt Q92544: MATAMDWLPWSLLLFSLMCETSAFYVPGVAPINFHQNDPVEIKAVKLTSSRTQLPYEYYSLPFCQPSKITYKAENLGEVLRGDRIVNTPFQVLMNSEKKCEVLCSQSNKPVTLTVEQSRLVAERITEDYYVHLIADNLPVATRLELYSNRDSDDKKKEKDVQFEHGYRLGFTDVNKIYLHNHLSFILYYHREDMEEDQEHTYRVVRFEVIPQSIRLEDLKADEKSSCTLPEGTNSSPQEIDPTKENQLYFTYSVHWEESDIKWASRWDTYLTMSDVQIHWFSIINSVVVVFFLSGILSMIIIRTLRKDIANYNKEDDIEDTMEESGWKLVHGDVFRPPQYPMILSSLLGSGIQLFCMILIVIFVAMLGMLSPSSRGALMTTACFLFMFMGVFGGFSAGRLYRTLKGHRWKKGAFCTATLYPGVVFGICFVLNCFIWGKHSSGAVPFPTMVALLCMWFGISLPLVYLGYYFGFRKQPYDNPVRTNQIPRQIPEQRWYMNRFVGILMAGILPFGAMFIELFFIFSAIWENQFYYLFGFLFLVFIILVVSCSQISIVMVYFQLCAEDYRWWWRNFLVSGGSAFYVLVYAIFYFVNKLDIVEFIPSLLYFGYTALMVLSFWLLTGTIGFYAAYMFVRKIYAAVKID
UniProt Q99805: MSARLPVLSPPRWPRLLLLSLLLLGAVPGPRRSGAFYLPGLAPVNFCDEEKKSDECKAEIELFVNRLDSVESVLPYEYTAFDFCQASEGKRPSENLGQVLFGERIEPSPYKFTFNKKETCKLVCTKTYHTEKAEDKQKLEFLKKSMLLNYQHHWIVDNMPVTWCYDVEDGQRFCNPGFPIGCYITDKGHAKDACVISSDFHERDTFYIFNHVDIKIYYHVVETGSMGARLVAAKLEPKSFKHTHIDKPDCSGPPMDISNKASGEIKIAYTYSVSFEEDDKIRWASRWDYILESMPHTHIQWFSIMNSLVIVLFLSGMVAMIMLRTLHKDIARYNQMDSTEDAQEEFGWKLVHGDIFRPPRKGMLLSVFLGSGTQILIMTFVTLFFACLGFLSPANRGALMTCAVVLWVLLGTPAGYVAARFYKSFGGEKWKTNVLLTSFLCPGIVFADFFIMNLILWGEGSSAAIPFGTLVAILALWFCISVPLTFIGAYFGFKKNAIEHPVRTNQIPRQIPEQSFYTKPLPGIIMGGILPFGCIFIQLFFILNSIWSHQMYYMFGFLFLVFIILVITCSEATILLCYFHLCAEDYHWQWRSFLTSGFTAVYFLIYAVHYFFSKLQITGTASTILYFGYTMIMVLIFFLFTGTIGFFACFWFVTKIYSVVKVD
UniProt Q9BX74: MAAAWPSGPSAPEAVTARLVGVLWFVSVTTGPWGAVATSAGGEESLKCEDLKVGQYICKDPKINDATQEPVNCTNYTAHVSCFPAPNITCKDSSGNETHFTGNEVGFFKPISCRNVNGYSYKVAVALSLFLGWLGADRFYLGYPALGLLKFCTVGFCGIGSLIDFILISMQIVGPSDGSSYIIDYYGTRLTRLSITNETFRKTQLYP
UniProt Q03169: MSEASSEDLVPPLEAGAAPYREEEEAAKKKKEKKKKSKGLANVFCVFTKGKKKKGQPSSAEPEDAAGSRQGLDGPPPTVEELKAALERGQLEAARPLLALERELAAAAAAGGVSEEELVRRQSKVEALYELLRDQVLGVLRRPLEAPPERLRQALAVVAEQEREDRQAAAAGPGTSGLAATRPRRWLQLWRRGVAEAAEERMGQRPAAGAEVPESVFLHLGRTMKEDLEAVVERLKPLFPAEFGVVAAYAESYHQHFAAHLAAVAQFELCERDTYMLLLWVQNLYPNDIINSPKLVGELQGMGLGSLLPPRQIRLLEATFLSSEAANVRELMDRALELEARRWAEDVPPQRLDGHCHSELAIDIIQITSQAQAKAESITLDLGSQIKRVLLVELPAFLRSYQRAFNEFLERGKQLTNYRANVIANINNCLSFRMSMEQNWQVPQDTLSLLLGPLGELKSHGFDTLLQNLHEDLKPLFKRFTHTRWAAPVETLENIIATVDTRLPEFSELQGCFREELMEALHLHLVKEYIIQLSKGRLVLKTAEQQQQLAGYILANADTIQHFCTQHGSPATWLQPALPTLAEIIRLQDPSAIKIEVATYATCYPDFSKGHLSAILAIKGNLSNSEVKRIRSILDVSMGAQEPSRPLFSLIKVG
UniProt A0PJW6: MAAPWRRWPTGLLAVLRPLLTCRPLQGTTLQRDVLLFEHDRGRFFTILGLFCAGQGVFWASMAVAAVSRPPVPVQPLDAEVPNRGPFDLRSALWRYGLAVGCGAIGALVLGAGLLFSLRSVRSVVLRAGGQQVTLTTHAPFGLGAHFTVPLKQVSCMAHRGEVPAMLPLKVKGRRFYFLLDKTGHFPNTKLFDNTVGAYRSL
UniProt Q96HV5: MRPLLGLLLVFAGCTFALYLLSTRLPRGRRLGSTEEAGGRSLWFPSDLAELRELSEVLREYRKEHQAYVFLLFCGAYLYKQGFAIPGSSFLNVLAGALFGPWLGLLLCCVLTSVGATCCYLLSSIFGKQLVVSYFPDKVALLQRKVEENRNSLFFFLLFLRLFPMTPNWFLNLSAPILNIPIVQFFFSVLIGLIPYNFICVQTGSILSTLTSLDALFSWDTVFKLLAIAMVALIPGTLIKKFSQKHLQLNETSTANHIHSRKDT
UniProt Q5T3F8: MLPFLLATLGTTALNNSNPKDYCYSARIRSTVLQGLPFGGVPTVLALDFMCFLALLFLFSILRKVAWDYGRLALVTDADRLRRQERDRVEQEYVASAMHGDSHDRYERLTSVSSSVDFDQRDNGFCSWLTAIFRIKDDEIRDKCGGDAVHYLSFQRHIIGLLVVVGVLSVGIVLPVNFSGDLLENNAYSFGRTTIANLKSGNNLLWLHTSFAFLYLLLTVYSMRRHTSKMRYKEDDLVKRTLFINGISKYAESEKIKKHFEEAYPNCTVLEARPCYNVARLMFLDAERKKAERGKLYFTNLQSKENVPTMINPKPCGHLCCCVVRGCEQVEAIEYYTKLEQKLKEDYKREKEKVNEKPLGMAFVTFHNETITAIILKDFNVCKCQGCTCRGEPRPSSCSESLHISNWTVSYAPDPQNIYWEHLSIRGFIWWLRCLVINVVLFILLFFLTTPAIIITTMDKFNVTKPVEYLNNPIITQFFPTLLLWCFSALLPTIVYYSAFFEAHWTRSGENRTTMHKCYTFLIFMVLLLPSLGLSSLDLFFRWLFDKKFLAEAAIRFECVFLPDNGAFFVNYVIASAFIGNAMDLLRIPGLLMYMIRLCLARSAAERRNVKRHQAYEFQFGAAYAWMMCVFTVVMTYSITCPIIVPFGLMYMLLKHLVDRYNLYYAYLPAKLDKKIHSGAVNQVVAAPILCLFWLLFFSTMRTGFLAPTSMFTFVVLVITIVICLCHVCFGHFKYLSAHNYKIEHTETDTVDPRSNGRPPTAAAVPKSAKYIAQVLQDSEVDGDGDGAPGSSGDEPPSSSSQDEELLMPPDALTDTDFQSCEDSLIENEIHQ
UniProt Q9UKI8: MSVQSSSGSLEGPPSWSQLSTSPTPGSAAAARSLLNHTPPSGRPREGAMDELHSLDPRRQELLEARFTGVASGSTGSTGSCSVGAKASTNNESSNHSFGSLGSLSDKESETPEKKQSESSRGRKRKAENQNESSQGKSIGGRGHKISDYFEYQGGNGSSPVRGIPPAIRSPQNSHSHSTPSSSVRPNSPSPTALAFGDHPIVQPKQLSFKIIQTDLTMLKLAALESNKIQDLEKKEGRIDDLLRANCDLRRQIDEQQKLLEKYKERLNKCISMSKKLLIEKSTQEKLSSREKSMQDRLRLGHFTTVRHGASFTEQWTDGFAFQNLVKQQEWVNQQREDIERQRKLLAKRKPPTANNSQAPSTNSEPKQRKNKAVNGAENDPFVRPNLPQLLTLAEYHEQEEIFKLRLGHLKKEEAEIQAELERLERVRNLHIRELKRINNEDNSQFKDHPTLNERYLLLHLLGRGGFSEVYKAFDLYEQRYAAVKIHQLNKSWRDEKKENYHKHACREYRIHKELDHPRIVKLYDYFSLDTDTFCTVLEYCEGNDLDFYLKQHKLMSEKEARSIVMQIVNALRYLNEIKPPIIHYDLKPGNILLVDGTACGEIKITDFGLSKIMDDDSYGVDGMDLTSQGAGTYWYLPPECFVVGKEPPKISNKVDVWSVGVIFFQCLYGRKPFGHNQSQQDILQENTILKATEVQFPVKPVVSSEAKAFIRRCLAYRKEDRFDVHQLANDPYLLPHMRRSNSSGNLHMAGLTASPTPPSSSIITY
UniProt Q96K49: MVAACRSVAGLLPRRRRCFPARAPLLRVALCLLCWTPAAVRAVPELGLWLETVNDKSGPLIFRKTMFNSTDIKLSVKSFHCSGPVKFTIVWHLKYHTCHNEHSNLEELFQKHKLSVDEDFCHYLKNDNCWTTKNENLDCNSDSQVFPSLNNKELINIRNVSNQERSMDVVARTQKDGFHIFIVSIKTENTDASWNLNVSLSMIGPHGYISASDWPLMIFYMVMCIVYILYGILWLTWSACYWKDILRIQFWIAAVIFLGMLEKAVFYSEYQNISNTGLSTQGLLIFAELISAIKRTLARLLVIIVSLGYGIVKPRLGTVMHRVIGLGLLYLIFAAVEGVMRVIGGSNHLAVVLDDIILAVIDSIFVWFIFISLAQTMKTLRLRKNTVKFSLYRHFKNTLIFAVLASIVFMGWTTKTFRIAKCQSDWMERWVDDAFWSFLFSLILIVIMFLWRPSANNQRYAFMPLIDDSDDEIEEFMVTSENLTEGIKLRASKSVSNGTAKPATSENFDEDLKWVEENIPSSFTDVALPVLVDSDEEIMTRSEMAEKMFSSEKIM
UniProt Q9BXJ8: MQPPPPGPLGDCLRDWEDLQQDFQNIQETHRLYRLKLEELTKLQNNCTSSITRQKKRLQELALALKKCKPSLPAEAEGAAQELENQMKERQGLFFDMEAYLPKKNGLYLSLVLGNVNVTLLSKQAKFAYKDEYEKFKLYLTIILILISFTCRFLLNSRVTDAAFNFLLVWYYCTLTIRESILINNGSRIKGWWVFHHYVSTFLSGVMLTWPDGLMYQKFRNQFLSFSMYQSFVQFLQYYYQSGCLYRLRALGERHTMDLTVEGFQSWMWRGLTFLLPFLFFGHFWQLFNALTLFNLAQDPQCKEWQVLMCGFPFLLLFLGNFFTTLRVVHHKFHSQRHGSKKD
UniProt Q9NUM4, whole entry, looked up: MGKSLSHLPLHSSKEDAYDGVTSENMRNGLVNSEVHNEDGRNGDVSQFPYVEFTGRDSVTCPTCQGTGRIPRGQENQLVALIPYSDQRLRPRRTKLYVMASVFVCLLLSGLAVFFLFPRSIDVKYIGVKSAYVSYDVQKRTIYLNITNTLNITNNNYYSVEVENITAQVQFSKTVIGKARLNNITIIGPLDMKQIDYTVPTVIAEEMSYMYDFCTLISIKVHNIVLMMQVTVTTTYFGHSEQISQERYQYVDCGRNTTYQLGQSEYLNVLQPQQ
UniProt Q0VDI3: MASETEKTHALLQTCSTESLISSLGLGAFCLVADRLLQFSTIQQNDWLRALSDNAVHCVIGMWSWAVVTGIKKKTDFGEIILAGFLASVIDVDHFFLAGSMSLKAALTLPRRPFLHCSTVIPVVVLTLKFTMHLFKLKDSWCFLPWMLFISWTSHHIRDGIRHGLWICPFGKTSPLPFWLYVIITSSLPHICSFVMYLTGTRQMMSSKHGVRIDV
UniProt Q8NCS4: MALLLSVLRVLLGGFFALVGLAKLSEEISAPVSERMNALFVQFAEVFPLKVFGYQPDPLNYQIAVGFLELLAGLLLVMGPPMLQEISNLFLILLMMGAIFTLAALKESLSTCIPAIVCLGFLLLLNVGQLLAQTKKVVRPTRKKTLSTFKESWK
UniProt O95807: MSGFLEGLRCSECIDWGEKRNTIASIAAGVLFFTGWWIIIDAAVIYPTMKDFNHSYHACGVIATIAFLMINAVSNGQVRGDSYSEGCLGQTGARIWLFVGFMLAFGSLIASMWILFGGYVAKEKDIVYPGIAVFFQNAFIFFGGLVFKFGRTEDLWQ

[2] = compound: CN1CCN(c2nc(C3=C(c4c[nH]c5ccccc45)C(=O)NC3=O)c3ccccc3n2)CC1 [sotrastaurin]
How it was run: as §1

[3] = compound: CN1CCc2c(c3ccccc3n2Cc2ccc(C(=O)NO)cc2)C1 [Tubastatin A]
How it was run: as §1

[4] = compound: CNC(=O)C1=CC=CC=C1NC2=NC(=NC=C2Cl)NC3=C(C=C(C=C3)N4CCOCC4)OC
How it was run: as §1

[5] = compound: CNC(=O)c1ccc(Nc2ncc(C(F)(F)F)c(NCc3nccnc3N(C)S(C)(=O)=O)n2)cc1 [defactinib]
How it was run: as §1

[6] = compound: CNCc1ccc(-c2[nH]c3cc(F)cc4c3c2CCNC4=O)cc1 [rucaparib]
How it was run: as §1

[7] = compound: CNc1nc(-c2ccc3c(N)n[nH]c3c2)cc(N2C[C@@H](C(=O)NC3CCCCC3)CC[C@H]2C)n1
How it was run: as §1

[8] = compound: COC(=O)N[C@@H](C)CNc1nccc(-c2cn(C(C)C)nc2-c2cc(Cl)cc(NS(C)(=O)=O)c2F)n1 [encorafenib]
How it was run: as §1

[9] = compound: COC(=O)[C@H](CCSC)NC(=O)C1=C(C=C(C=C1)NC[C@H](CS)N)C2=CC=CC=C2
How it was run: as §1

[10] = compound: COC1=CC=C(C=C1)CN2C=CC3=C2C=C(C=C3)C(=O)NO
How it was run: as §1

[11] = compound: CON(C)C(=O)N1N=C(c2cc(F)ccc2F)S[C@@]1(CCCN)c1ccccc1 [filanesib]
How it was run: as §1

[12] = compound: CO[C@H]1C[C@@H]2CC[C@@H](C)[C@@](O)(O2)C(=O)C(=O)N2CCCC[C@H]2C(=O)O[C@H]([C@H](C)C[C@@H]2CC[C@H](n3cnnn3)[C@H](OC)C2)CC(=O)[C@H](C)/C=C(\C)[C@@H](O)[C@@H](OC)C(=O)[C@H](C)C[C@H](C)/C=C/C=C/C=C/1C [zotarolimus]
How it was run: as §1

[13] = compound: COc1cc(C(=O)O)ccc1NC(=O)[C@@H]1N[C@@H](CC(C)(C)C)[C@](C#N)(c2ccc(Cl)cc2F)[C@H]1c1cccc(Cl)c1F [idasanutlin]
How it was run: as §1

[14] = compound: COc1cc(Nc2ncc3c(n2)-c2ccc(Cl)cc2C(c2c(F)cccc2OC)=NC3)ccc1C(=O)O [alisertib]
How it was run: as §1

[15] = compound: COc1cc2nc(-c3cc(F)ccc3O)nc(N[C@@H]3CNC[C@H]3C(C)(C)O)c2cc1OC
How it was run: as §1

[16] = compound: COc1cc2ncnc(Nc3ccc(F)c(Cl)c3)c2cc1OCCCN1CCOCC1 [gefitinib]
How it was run: as §1

[17] = compound: COc1cccc2cc(-c3nc([C@H]4CC[C@H](C(=O)O)CC4)n4ncnc(N)c34)[nH]c12
How it was run: as §1

[18] = compound: CS(=O)(=O)CCNCc1ccc(-c2ccc3ncnc(Nc4ccc(OCc5cccc(F)c5)c(Cl)c4)c3c2)o1 [lapatinib]
How it was run: as §1

[19] = compound: CS(=O)(=O)N1CCN(Cc2cc3nc(-c4cccc5[nH]ncc45)nc(N4CCOCC4)c3s2)CC1 [pictilisib]
How it was run: as §1

[20] = compound: CN1CC[C@H](c2c(O)cc(O)c3c(=O)cc(-c4ccccc4Cl)oc23)[C@H](O)C1 [alvocidib]
How it was run: as §1

Measured: log2 fold change

TMEM161B (UniProt Q8NDZ6)
inactive: [1] 0.048 | [2] 0.037 | [3] -0.007 | [4] -0.043 | [5] -0.061 | [6] 0.013 | [7] -0.049 | [8] -0.023 | [9] -0.05 | [10] -0.055 | [11] -0.008 | [12] -0.035 | [13] -0.16 | [14] 0.006 | [15] 0.013 | [16] 0.087 | [17] -0.015 | [18] -0.056 | [19] 0.097

TMEM192 (UniProt Q8IY95)
inactive: [1] 0.092 | [2] -0.028 | [3] 0.035 | [4] 0.015 | [5] -0.016 | [6] -0.01 | [7] -0.033 | [8] -0.02 | [9] 0.036 | [10] -0.036 | [11] -0.162 | [12] -0.047 | [13] 0.037 | [14] -0.048 | [15] -0.009 | [16] -0.047 | [17] 0.099 | [18] -0.02 | [19] 0.038

TM9SF4 (UniProt Q92544)
inactive: [1] -0.028 | [2] 0.017 | [3] -0.015 | [4] 0.013 | [5] 0.037 | [6] 0.043 | [7] -0.046 | [8] 0.039 | [9] -0.03 | [10] 0.048 | [11] -0.04 | [12] 0.036 | [13] 0.004 | [14] -0.031 | [15] -0.023 | [16] 0.086 | [17] 0.004 | [18] 0.274 | [19] -0.161

TM9SF2 (UniProt Q99805)
inactive: [1] 0.038 | [2] -0.01 | [3] -0.001 | [4] 0.005 | [5] 0.006 | [6] 0.015 | [7] -0.031 | [8] 0.001 | [9] -0.069 | [10] -0.06 | [11] -0.073 | [12] 0.043 | [13] -0.103 | [14] -0.01 | [15] -0.061 | [16] 0.009 | [17] 0.007 | [18] 0.011 | [19] 0.085

TM2D1 (UniProt Q9BX74)
inactive: [1] -0.031 | [2] -0.279 | [7] -0.064 | [11] -0.106

TNFAIP2 (UniProt Q03169)
inactive: [1] -0.119 | [2] -0.098 | [3] 0.105 | [4] -0.244 | [7] 0.086 | [11] -0.007 | [16] -0.006

TMEM223 (UniProt A0PJW6)
inactive: [1] 0.114 | [2] 0.048 | [3] -0.059 | [4] 0.045 | [5] 0.015 | [6] -0.03 | [7] -0.02 | [8] -0.047 | [9] 0.022 | [10] -0.042 | [11] -0.109 | [12] 0.083 | [13] -0.112 | [14] -0.046 | [15] -0.147 | [16] -0.028 | [17] 0.038 | [18] 0.018 | [19] -0.007

TMEM41A (UniProt Q96HV5)
inactive: [1] 0.03 | [2] -0.057 | [3] -0.068 | [4] 0.008 | [5] 0.003 | [6] -0.009 | [7] -0.011 | [8] 0.025 | [9] -0.012 | [10] -0.123 | [11] -0.158 | [13] 0.024 | [14] -0.096 | [15] 0.088 | [16] 0.034 | [17] 0.092 | [18] -0.106 | [19] -0.047

TNFRSF10A (UniProt O00220)
inactive: [1] -0.038 | [2] -0.012 | [3] 0.04 | [4] -0.052 | [5] 0.039 | [6] 0.017 | [7] 0.02 | [8] 0.031 | [9] 0.056 | [10] -0.046 | [11] 0.028 | [12] -0.035 | [13] 0.058 | [14] -0.021 | [15] 0.024 | [16] -0.012 | [17] -0.002 | [18] -0.073
active: [19] 0.304

TMEM63B (UniProt Q5T3F8)
inactive: [1] -0.084 | [2] -0.055 | [3] -0.015 | [4] 0.019 | [5] 0.015 | [6] -0.004 | [7] -0.068 | [8] 0.023 | [9] 0 | [10] -0.125 | [11] -0.089 | [12] -0.018 | [13] 0.011 | [14] -0.037 | [15] -0.028 | [16] -0.03 | [17] -0.028 | [18] 0.032 | [19] 0.003

TLK1 (UniProt Q9UKI8)
inactive: [1] 0.022 | [2] -0.011 | [3] 0.036 | [4] -0.064 | [5] -0.013 | [6] -0.029 | [7] -0.002 | [8] 0.022 | [9] -0.033 | [10] -0.011 | [11] -0.021 | [12] 0.019 | [13] -0.009 | [14] -0.023 | [15] -0.029 | [16] 0.006 | [17] 0.064 | [18] -0.018 | [19] -0.04

TMEM87B (UniProt Q96K49)
inactive: [1] -0.072 | [2] 0.013 | [3] -0.099 | [4] -0.019 | [5] 0.044 | [6] -0.016 | [7] -0.123 | [8] 0.03 | [9] 0.149 | [10] -0.064 | [11] -0.046 | [12] -0.108 | [13] -0.05 | [14] -0.133 | [15] -0.002 | [16] 0.063 | [17] 0.036 | [18] 0.026 | [19] 0.055

TMEM120A (UniProt Q9BXJ8)
active: [6] -0.559
inactive: [1] 0.036 | [2] -0.098 | [3] 0.069 | [4] -0.013 | [5] -0.104 | [7] -0.036 | [8] 0.184 | [9] -0.047 | [10] -0.2 | [11] -0.049 | [12] 0.038 | [13] -0.217 | [14] -0.08 | [15] -0.08 | [16] 0.113 | [17] -0.02 | [18] 0.06 | [19] -0.094

TMCO3 (UniProt Q6UWJ1)
inactive: [1] -0.202 | [2] 0.15 | [5] 0.032 | [7] -0.006 | [9] 0.134 | [11] 0.107 | [14] -0.158 | [17] -0.105 | [19] 0.163

TM7SF2 (UniProt O76062)
inactive: [1] 0.069 | [2] -0.142 | [4] -0.043 | [5] -0.006 | [7] 0.018 | [9] -0.096 | [11] -0.142 | [12] -0.018 | [15] -0.143 | [16] 0.059 | [18] 0

Pulled one by one from the entries so far, two records:
TMEM87B (UniProt Q96K49)
inactive: [1] -0.072 | [2] 0.013 | [3] -0.099 | [4] -0.019 | [5] 0.044 | [6] -0.016 | [7] -0.123 | [8] 0.03 | [9] 0.149 | [10] -0.064 | [11] -0.046 | [12] -0.108 | [13] -0.05 | [14] -0.133 | [15] -0.002 | [16] 0.063 | [17] 0.036 | [18] 0.026 | [19] 0.055

TMCO3 (UniProt Q6UWJ1)
inactive: [1] -0.202 | [2] 0.15 | [5] 0.032 | [7] -0.006 | [9] 0.134 | [11] 0.107 | [14] -0.158 | [17] -0.105 | [19] 0.163

(list continues)

TMEM106B (UniProt Q9NUM4)
inactive: [1] 0.123 | [2] 0.027 | [3] -0.121 | [4] -0.037 | [5] 0.021 | [6] -0.007 | [7] -0.145 | [8] -0.037 | [9] -0.059 | [10] 0.021 | [11] 0.06 | [12] -0.082 | [13] -0.032 | [14] -0.012 | [15] -0.027 | [16] 0.04 | [17] 0.057 | [18] -0.005 | [19] 0.027

TMEM267 (UniProt Q0VDI3)
inactive: [20] -0.028 | [3] -0.041 | [4] 0.132 | [5] -0.004 | [6] -0.07 | [8] -0.094 | [9] 0.079 | [10] -0.233 | [12] -0.164 | [13] 0.045 | [15] 0.144 | [18] 0.054 | [19] 0.162

TMEM35B (UniProt Q8NCS4)
inactive: [1] 0.067 | [3] -0.015 | [4] 0.065 | [5] -0.191 | [7] 0.115 | [9] -0.188 | [10] -0.079 | [14] -0.19 | [16] -0.049 | [17] 0.089 | [19] 0.045

TMEM50A (UniProt O95807)
inactive: [20] 0.16 | [3] -0.182 | [5] -0.106 | [9] 0.05 | [10] -0.222 | [12] -0.261 | [13] 0.142 | [15] -0.264 | [16] -0.035 | [18] -0.031

— the supplement of paper PMC10849652
